Taken from: PubChem BioAssay AID1224830 (NIAID, 2016)
The deposit covers about 18,000 reagents; shown is an unselected part. Of all reagents, about 2,900 (16%) are marked active. 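Calls are made per well; low scores hint the gene aids the LPS response, high scores that it dampens it.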 Entries without a mark were called inactive. Repeated entries: four replicate wells of each siRNA pool. Reagent sequences are not shown.

- Screen: 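Genes whose knock-down alters the TNF-alpha reporter response to LPS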 (primary screen)
- System: human THP-1 monocytic leukaemia cells, TNF dual-luciferase reporter clone, PMA-differentiated to macrophage-like cells
- Reagents: siRNA pool against human genes, 50 nM
- Time to read-out: LPS for 4 h, given about 3 days after siRNA transfection
- Challenge: bacterial LPS (TLR4 ligand), 10 ng/ml
- Detection: 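TNF firefly reporter luminescence divided by renilla, normalised to the plate median, then turned into a robust z-score for each replicate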
- Reading the numbers: TNF reporter robust z-score: higher = stronger TNF reporter response to LPS
- Active means: 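a well is active when its z-score exceeds 2.8 or falls below -1.5; control wells carry no call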

gene knocked down | TNF reporter robust z-score
NLRP14 | -0.81
NLRP14 | 0.48
NLRP14 | -0.57
NLRP14 | -0.44
TMEM63B | -1.06
TMEM63B | -0.41
TMEM63B | -1.14
TMEM63B | -0.73
TMEM14A | -0.24
TMEM14A | -0.32
TMEM14A | -0.19
TMEM14A | -0.78
A2M | -0.61
A2M | -0.71
A2M | -1.25
A2M | -1.21
CLCNKA | 1.49
CLCNKA | -0.4
CLCNKA | -1.61 (active)
CLCNKA | -0.18
FAHD2B | -0.98
FAHD2B | -0.96
FAHD2B | -0.87
FAHD2B | -0.88
CCL22 | 0.44
CCL22 | -0.33
CCL22 | -0.73
CCL22 | -0.14
PGGT1B | -0.84
PGGT1B | -0.72
PGGT1B | -0.42
PGGT1B | -0.68
IFT38 | -0.25
IFT38 | -0.6
IFT38 | -0.91
IFT38 | 0.06
ARL2 | 4.26 (active)
ARL2 | 0.25
ARL2 | 1.04
ARL2 | 0.33
SNX15 | -0.12
SNX15 | 0.62
SNX15 | 1.06
SNX15 | 2.1
LYZ | 2.71
LYZ | 1.41
LYZ | 0.48
LYZ | 5.32 (active)
HOXB9 | 0.74
HOXB9 | 1.16
HOXB9 | 0.47
HOXB9 | 0.11
H2BC12 | -0.6
H2BC12 | -0.9
H2BC12 | -0.73
H2BC12 | 1.08
WFDC10A | 0.05
WFDC10A | 0.38
WFDC10A | 0.27
WFDC10A | 0.56
CHAF1B | -0.52
CHAF1B | -0.01
CHAF1B | -1.36
CHAF1B | -1.08
TOP3B | 0.14
TOP3B | 0.58
TOP3B | 1.02
TOP3B | 0.98
RAB11B | 0.52
RAB11B | 0.68
RAB11B | 0.32
RAB11B | 1.09
ZNF407 | -0.12
ZNF407 | 0.25
ZNF407 | -0.53
ZNF407 | 0.53
SEMA3B | 0.27
SEMA3B | 1.19
SEMA3B | 0.93
SEMA3B | 0.84
ZNF83 | 0.65
ZNF83 | 0
ZNF83 | 0.34
ZNF83 | 1.37
DEPDC1B | -0.05
DEPDC1B | -0.18
DEPDC1B | 0.33
DEPDC1B | 0.49
TMEM196 | -0.64
TMEM196 | -0.39
TMEM196 | -1.01
TMEM196 | -0.31
KRT2 | -1.8 (active)
KRT2 | -1.76 (active)
KRT2 | -1.6 (active)
NEXN | -0.36
NEXN | -0.92
NEXN | -0.37
NEXN | 0.07
GPR18 | -0.53
GPR18 | 0.16
GPR18 | -0.05
GPR18 | 1.01
TEX28 | 1.22
TEX28 | 1.34
TEX28 | 2.44
TEX28 | 1.09
VPS45 | 0.3
VPS45 | -0.09
VPS45 | 0.32
VPS45 | 0.82

Hits, among the entries above:
gene knocked down | TNF reporter robust z-score
CLCNKA | -1.61 (active)
ARL2 | 4.26 (active)
LYZ | 5.32 (active)
KRT2 | -1.8 (active)
KRT2 | -1.76 (active)
KRT2 | -1.6 (active)
